Measured values published in PMC11444156.
Results are given in words; binding and its absence hold for the method and conditions named. Binding seen in cells or lysates may run through a third protein. Some results given as binding are weak or reduced against the parent protein; the word gives no strength.

Protein sequences, listed by entry. Tags and fused reporters are not part of them.
UniProt Q6X632: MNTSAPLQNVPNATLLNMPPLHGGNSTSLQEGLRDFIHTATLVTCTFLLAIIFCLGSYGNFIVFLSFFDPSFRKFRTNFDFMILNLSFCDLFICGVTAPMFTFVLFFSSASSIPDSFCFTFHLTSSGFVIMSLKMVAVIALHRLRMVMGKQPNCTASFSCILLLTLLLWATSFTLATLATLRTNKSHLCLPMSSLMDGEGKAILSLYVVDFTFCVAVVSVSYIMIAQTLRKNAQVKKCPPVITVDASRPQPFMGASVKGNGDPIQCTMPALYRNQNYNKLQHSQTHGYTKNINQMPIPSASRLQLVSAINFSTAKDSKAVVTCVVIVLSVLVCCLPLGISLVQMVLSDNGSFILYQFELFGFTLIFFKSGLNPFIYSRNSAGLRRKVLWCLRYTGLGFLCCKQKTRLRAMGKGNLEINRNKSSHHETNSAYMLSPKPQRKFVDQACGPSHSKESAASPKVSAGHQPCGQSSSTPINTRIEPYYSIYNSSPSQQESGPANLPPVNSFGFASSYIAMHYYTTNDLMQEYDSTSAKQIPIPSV
UniProt P21279: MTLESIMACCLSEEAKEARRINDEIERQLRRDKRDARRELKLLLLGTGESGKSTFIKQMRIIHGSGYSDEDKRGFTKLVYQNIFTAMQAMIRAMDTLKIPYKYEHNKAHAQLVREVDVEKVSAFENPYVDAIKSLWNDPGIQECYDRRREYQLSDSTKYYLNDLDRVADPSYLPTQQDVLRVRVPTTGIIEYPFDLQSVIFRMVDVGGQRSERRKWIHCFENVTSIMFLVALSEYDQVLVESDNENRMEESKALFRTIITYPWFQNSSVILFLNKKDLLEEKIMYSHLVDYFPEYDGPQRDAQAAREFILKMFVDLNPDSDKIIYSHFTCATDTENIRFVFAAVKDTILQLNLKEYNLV

Target: 3xFlag-tagged mouse Gpr75 expressed in 293T cells (mouse) (UniProt Q6X632)
Test: co-IP; 293T cells expressing HA-tagged Gnaq and 3xFlag-tagged Gpr75; Nonidet P-40 lysis buffer, Flag antibody-conjugated beads 2 hours at 4°C, eluted with 3xFlag peptides, immunoblot

“HA-tagged mouse Gnaq expressed in 293T cells (from UniProt P21279 1-359)” was tested, and the binding was “binds”.
